PubChem BioAssay AID1053208 – Peter MacCallum Cancer Centre | 2014
Aim: 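Find knock-downs that sensitise mouse osteosarcoma cells to doxorubicin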 (primary screen). Cell system: mouse osteosarcoma cells, early-passage culture from an engineered mouse model of fibroblastic bone tumour. Knock-down reagent: siRNA pool against mouse genes, 40 nM. Duration: about 120 h (48 h before drug, then 72 h with drug). Treatment: doxorubicin 100 nM for 72 h, roughly 30-40% inhibitory dose. Detection: 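Luminescent ATP signal taken as viability with or without 100 nM doxorubicin for 72 h; mean of two wells set against non-targeting siRNA and turned into robust z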. Direction: viability z-score with doxorubicin: higher = more viable cells under doxorubicin; viability z-score without drug: higher = more viable cells with knock-down alone. Hit rule: 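a pool counts as active when its viability z-score with doxorubicin is -2 or below and its z-score without drug lies between -2 and 2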.
This is an unselected part of about 17,000 deposited reagents. Of all reagents, 788 (4.7%) are marked active. 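Calls rest on z-score classes alone; an extra cut-off of viability at most 70% of control was not applied to them.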 Reagents against one gene are numbered here. Some reagents were tested in more than one well and are listed for each. Not all columns of the deposit are shown.

With Fpr1, how do the results read?
combined z-score class: no change with or without drug; viability z-score with doxorubicin: -0.9; viability z-score without drug: -1.01; outcome: inactive

With Ift88, what was measured?
combined z-score class: low cell count with and without drug; viability z-score with doxorubicin: -2.36; viability z-score without drug: -2.19; outcome: inactive

With Klrb1b #1, what was measured?
combined z-score class: no change with or without drug; viability z-score with doxorubicin: -0.67; viability z-score without drug: -1.01; outcome: inactive

Which result is listed for Klrb1b #2?
combined z-score class: no change with or without drug; viability z-score with doxorubicin: -0.22; viability z-score without drug: 0.67; outcome: inactive

What is on record for Commd3?
combined z-score class: no change with or without drug; viability z-score with doxorubicin: -0.45; viability z-score without drug: 1.85; outcome: inactive

With Plk1, what was measured?
combined z-score class: low cell count with and without drug; viability z-score with doxorubicin: -4.16; viability z-score without drug: -2.02; outcome: inactive

How did the screen score Nt5c2?
combined z-score class: no change with or without drug; viability z-score with doxorubicin: 0.67; viability z-score without drug: 0.84; outcome: inactive

With Sphk2, what was measured?
combined z-score class: high cell count with doxorubicin only; viability z-score with doxorubicin: 2.59; viability z-score without drug: 0.84; outcome: inactive

With Armcx1, what was measured?
combined z-score class: no change with or without drug; viability z-score with doxorubicin: -0.56; viability z-score without drug: -0.84; outcome: inactive

For Irs1, what does the deposit list?
combined z-score class: no change with or without drug; viability z-score with doxorubicin: 1.12; viability z-score without drug: 0; outcome: inactive

Which result is listed for Bltp1 #1?
combined z-score class: no change with or without drug; viability z-score with doxorubicin: 0.79; viability z-score without drug: -0.84; outcome: inactive

With Bltp1 #2, what was measured?
combined z-score class: no change with or without drug; viability z-score with doxorubicin: -0.67; viability z-score without drug: -1.35; outcome: inactive

What did the screen give for Or9s18?
combined z-score class: no change with or without drug; viability z-score with doxorubicin: -1.24; viability z-score without drug: -1.85; outcome: inactive

With Cenpu, what does the deposit list?
combined z-score class: no change with or without drug; viability z-score with doxorubicin: -0.9; viability z-score without drug: 1.01; outcome: inactive

What did the screen give for Vmn1r56?
combined z-score class: no change with or without drug; viability z-score with doxorubicin: 0.11; viability z-score without drug: -0.34; outcome: inactive

With Cln3, what was measured?
combined z-score class: no change with or without drug; viability z-score with doxorubicin: -0.22; viability z-score without drug: -1.18; outcome: inactive

For Or14j9, how do the results read?
combined z-score class: low cell count without drug only; viability z-score with doxorubicin: -1.12; viability z-score without drug: -2.19; outcome: inactive

How did the screen score 4933408B17?
combined z-score class: high cell count without drug only; viability z-score with doxorubicin: 1.35; viability z-score without drug: 2.53; outcome: inactive

With Trav7d-6, what does the deposit list?
combined z-score class: no change with or without drug; viability z-score with doxorubicin: -1.35; viability z-score without drug: -0.17; outcome: inactive

Which result is listed for Rpl36?
combined z-score class: low cell count with and without drug; viability z-score with doxorubicin: -6.07; viability z-score without drug: -4.89; outcome: inactive

For Htr1d, what was measured?
combined z-score class: no change with or without drug; viability z-score with doxorubicin: 0.9; viability z-score without drug: -0.34; outcome: inactive

What is on record for Eif3h?
combined z-score class: no change with or without drug; viability z-score with doxorubicin: -0.45; viability z-score without drug: -0.51; outcome: inactive

With Samd4b, what was measured?
combined z-score class: no change with or without drug; viability z-score with doxorubicin: -1.24; viability z-score without drug: -0.34; outcome: inactive

Which result is listed for Cyp2a12?
combined z-score class: no change with or without drug; viability z-score with doxorubicin: 0.79; viability z-score without drug: 1.85; outcome: inactive

With Cdk19, how do the results read?
combined z-score class: no change with or without drug; viability z-score with doxorubicin: -0.22; viability z-score without drug: 0.84; outcome: inactive

For Cdk19, what was measured?
combined z-score class: no change with or without drug; viability z-score with doxorubicin: -0.22; viability z-score without drug: 0.17; outcome: inactive

Which result is listed for Mup2?
combined z-score class: no change with or without drug; viability z-score with doxorubicin: -0.67; viability z-score without drug: -0.84; outcome: inactive

How did the screen score Ercc6?
combined z-score class: no change with or without drug; viability z-score with doxorubicin: -0.22; viability z-score without drug: 1.52; outcome: inactive

What is on record for Npc1l1?
combined z-score class: no change with or without drug; viability z-score with doxorubicin: -1.8; viability z-score without drug: -0.67; outcome: inactive

For Mobp, what does the deposit list?
combined z-score class: low cell count with and without drug; viability z-score with doxorubicin: -2.02; viability z-score without drug: -2.19; outcome: inactive

What did the screen give for Tfpi?
combined z-score class: no change with or without drug; viability z-score with doxorubicin: -0.45; viability z-score without drug: -0.51; outcome: inactive

Which result is listed for 9430097D07Rik?
combined z-score class: no change with or without drug; viability z-score with doxorubicin: 0.9; viability z-score without drug: 0.51; outcome: inactive

What is on record for Cd6?
combined z-score class: no change with or without drug; viability z-score with doxorubicin: 1.57; viability z-score without drug: 0.84; outcome: inactive

For C1d, what does the deposit list?
combined z-score class: no change with or without drug; viability z-score with doxorubicin: -1.35; viability z-score without drug: 0.51; outcome: inactive

What did the screen give for Cycs?
combined z-score class: no change with or without drug; viability z-score with doxorubicin: 0.9; viability z-score without drug: -0.34; outcome: inactive

For Fbxl3, what was measured?
combined z-score class: no change with or without drug; viability z-score with doxorubicin: -0.45; viability z-score without drug: -0.17; outcome: inactive

Copied from the list:
Cln3, viability z-score with doxorubicin → -0.22
Value of C1d in “outcome”: inactive
